Structures can show the parent of a compound that is named as a salt. Some of the results follow. Repeats are few or missing, and single values can be far off.

The assay concerns Trypanosoma brucei brucei bloodstream form L262P (kDNA-independent). Kind of assay: viability Z-score (nuclei count per well, median-polish normalised, relative to plate distribution); higher = more viable parasites (negative = growth inhibition). The conditions noted are these: 4 days; compound concentration: 10 µM (some Prestwick/PKE rows may be 1 µM / not distinguished).
For the molecule `C=1/2\C(=C/C(\C(=C/C1)\SC)=O)\[C@@H](NC(=O)C)CCc1c2c(c(c(O[C@H]2[C@@H]([C@H]([C@@H]([C@H](O2)CO)O)O)O)c1)OC)OC` [Thiocolchicoside], the “viability Z-score” value was -1.78. For `CCn1cc(C(=O)O)c(=O)c2cc(-c3ccc([N+](=O)[O-])o3)c(Cl)cc21` the value was -1.96.

As to `O=C([C@@H]1CCCCN1S(=O)(=O)c1ccc(Cl)cc1)N1CCCCCC1`, the “viability Z-score” value was -1.47.

In the case of `CN(C)N1C(=O)c2ccccc2[C@]1(N)c1ccccc1`, the “viability Z-score” value is -2.52.

With `CN1C(=O)CC(c2ccccc2)C1=O` (stereo not given) [Phensuximide], the “viability Z-score” value was -1.4. On to `CCN(CC)c1ccc(/C=N/NC(=O)CSc2nnc(SCc3ccccc3)s2)c(O)c1`, for which the “viability Z-score” value was -4.54. Take `O=C(N2C=1C=CC=CC=1C(C)=CC2(C)C)C3=C/C=C(/[F])C=C3`: the “viability Z-score” value was -3.76. Regarding `Cc1nc(NC(=O)C2CCCCC2)sc1C(=O)Nc1ccc2c(c1)OCCO2`, the “viability Z-score” value is -2.17. The result for `O=C(OC)[C@]1(NC(O1)=N/C2=C/C=C(/[F])C=C2)C([F])([F])[F]` reads -1.32. For `O=C(/C=C/C#Cc1cccc(NS(=O)(=O)c2ccccc2)c1)NO` [Oxamflatin] the value was -3.52; for `C[C@]12CC[C@@H]3c4ccc(O)cc4C[C@@H](CCCCCCCCCS(=O)CCCC(F)(F)C(F)(F)F)[C@H]3[C@@H]1CC[C@@H]2O` (stereo not given in full) [Fulvestrant], -7.41; for `O=C(CC=1[S]C=CC=1)N(/C2=C/C=CC=C2)[C@@](C)(CC)C(=O)N[C@]3([H])CCCCC3`, -4.52.

In the case of `CC1(C)SC2C(NC(=O)Cc3ccccc3)C(=O)N2C1C(=O)O.CC1(C)SC2C(NC(=O)Cc3ccccc3)C(=O)N2C1C(=O)O.c1ccc(CNCCNCc2ccccc2)cc1` (stereo not given) [Benzathine benzylpenicillin], the “viability Z-score” value was -2.83. For `O=C(N/C1=N/C=C/C=C1/C)C=2C=CC([Cl])=CC=2[Cl]` the value was -6.03; for `CCC(=O)OC(OP(=O)(CCCCc1ccccc1)CC(=O)N1C[C@H](C2CCCCC2)C[C@H]1C(=O)O)C(C)C` (stereo not given in full) [Fosinopril], -1.77; for `CO[C@@H]1[C@H](N(C)C(=O)c2ccccc2)C[C@H]2O[C@]1(C)n1c3ccccc3c3c4c(c5c6ccccc6n2c5c31)C(=O)NC4`, -3.69. With `N#C/C1=C(/NC(C)=C(C(=O)C)[C@]1([H])C2=CC=CC=C2)[S]CC(=O)C3=CC([Br])=CC=C3`, the “viability Z-score” value was -2.41. The result for `O=C1C=C(C(=NN1CC(=O)NC=2/C=C(/[Cl])C(=CC=2)OC)C(C)(C)[H])C=3O/N=C(/C)C=3` reads -3.54; that for `[O-][N+](=O)C1=CC=C(C=C1)C(=O)N[C@]3([H])CCN(CC(=O)N[C@]2([H])CCCC[C@]2(C)[H])CC3`, -5.26; that for `CC(CN(C)C)C(C)(O)Cc1ccc(Cl)cc1` (stereo not given) [Clobutinol hydrochloride], -3.19. For `N=1\C(c2c(N/C1/N)ncc(n2)CNc1ccc(C(N[C@H](C(=O)O)CCC(=O)O)=O)cc1)=O` [Folic acid] the value was -2.24. As to `N=c1[nH]c(-c2ccc3c(c2)OCCO3)cs1`, the “viability Z-score” value is -6.1. Consider `[O-][N+](=O)C5=C/C=C(/NC(=O)NC=2C=C1N=C(C(=NC1=CC=2)C3=CC=CC=C3)C=4C=CC=CC=4)C=C5`, for which the “viability Z-score” value was -1.96. In the case of `O=[P](/C1=C/C=CC=C1)(C2=CC=CC=C2)[C@]([H])(N=CC=3[S]C=CC=3)C=4C=CC=CC=4`, the “viability Z-score” value was -2.13. As for `O=C(CN2C=1C=CC=CC=1N3CCCN=C23)C4=C/C=C(/[Br])C=C4`, the “viability Z-score” value was -2.95. The result for `O=C4C1=C([S]/C(=C1/C)C(=O)N2CCN(CC2)C3=CC([Cl])=CC=C3)N=CN4CC(=O)NC=5C=C(C=CC=5)C([F])([F])[F]` reads -1.82; that for `O=C(Nc1ccc([N+](=O)[O-])cc1Cl)c1cc(Cl)ccc1O` [Niclosamide], -1.86; that for `Cc1cc(C(C)(C)CC(C)(C)C)ccc1OCCOCC[N+](C)(C)Cc1ccccc1` [Methyl benzethonium chloride], -3.37.

`O=C(N/C1=C/C=C(C=C1)OCC)C[S]/C2=N/N=C(N2CC=C)C34CC5([H])C[C@@]([H])(C3)CC([H])(C4)C5`: the “viability Z-score” value was -2.05.

As to `[C@@]/12(c3nc(\C1=C\C=C(/C2C(=O)OC)\C(=O)OC)cc1[nH]c(c(c1C)C=C)cc\1nc(\C(=C1\C)\CCC(=O)O)cc1[nH]c(c3)c(c1CCC(=O)OC)C)C` (stereo not given in full) [Verteporfin], the “viability Z-score” value was -2.32. With `CCC1(c2ccccc2)NC(=O)N(C)C1=O` (stereo not given) [Mephenytoin], the “viability Z-score” value was -1.62. For `CCN(CC)C(=S)SSC(=S)N(CC)CC` [Disulfiram] the value was -5.7; for `C[C@@H]1CN(C(=S)c2cccc([N+](=O)[O-])c2)C[C@H](C)O1`, -2.02. `C[C@H](NCCCCCCN[C@H](C)[C@H]1COc2ccccc2O1)[C@@H]1COc2ccccc2O1`: the “viability Z-score” value was -2.29.

`COc1ccc(S(=O)(=O)N(CC(=O)NO)CC(C)C)cc1`: the “viability Z-score” value was -5.47. As to `O=C(O)c1cc(-c2ccco2)nc2ccccc12`, the “viability Z-score” value is -4.33. For `Nc1nc2c(c(C(F)(F)F)n1)CCc1ccccc1-2` the value was -3.23; for `CC(C)=CCC/C(C)=C/C=N/NC(=O)c1nnn(-c2nonc2N)c1-c1cccc([N+](=O)[O-])c1`, -2.58; for `[Cl]C=1/C=C(/[Cl])C=CC=1C=4/N=C(/C2=C(\C)NC=3C=CC=CC2=3)C(=NN=4)C5=CC=CC=C5`, -2.63. On to `O=C(C[S]/C1=N/N=C(N1C=2C=CC([F])=CC=2)C=3C=CC(O)=CC=3)N4CCCCC4`, for which the “viability Z-score” value was -2.98.
